Data on 1 molecule can be found in the supplement of paper PMC8728848.

The other results are listed elsewhere or left out.

Experiment in all cases: glycan array binding signal (z-score within array); higher = stronger binding
What all share (settings): glycan notation: IUPAC condensed, linker removed

One test addresses Gal(b1-4)Glc. Put shortly:
(§1)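 The binding signal is a Z-score computed within each array. Data were drawn from 3228 arrays in the Consortium for Functional Glycomics database, restricted to those with a known protein sequence. Scores were averaged over arrays of the same protein sequence at different concentrations or buffers, and over linkers, and negative values can be taken as non-binding.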

Another test has as its target Gal(b1-4)Glc6S. Put shortly:
as §1

A further test has as its target Gal(b1-4)GlcNAc. In short, it runs like this: as §1
For test [1], the target named is Gal(b1-4)GlcNAc(a1-6)Gal(b1-4)GlcNAc. Put shortly: as §1
The target of the next test is Gal(b1-4)GlcNAc(b1-2)Man. Put shortly:
as §1

The target in test [2] is Gal(b1-4)GlcNAc(b1-2)Man(a1-3)Man(b1-4)GlcNAc(b1-4)GlcNAc. In short, it runs like this: as §1
For test [3], the target named is Gal(b1-4)GlcNAc(b1-2)Man(a1-3)[Gal(b1-4)GlcNAc(b1-2)Man(a1-6)]Man(b1-4)GlcNAc(b1-4)GlcNAc. Put shortly:
as §1

Test [4] has as its target Gal(b1-4)GlcNAc(b1-2)Man(a1-3)[Gal(b1-4)GlcNAc(b1-2)Man(a1-6)]Man(b1-4)GlcNAc(b1-4)[Fuc(a1-6)]GlcNAc. In short, it runs like this: as §1
Test [5] deals with Gal(b1-4)GlcNAc(b1-2)Man(a1-3)[Gal(b1-4)GlcNAc(b1-2)Man(a1-6)][Gal(b1-4)GlcNAc(b1-4)]Man(b1-4)GlcNAc(b1-4)[Fuc(a1-6)]GlcNAc. In short, it runs like this: as §1
The target of test [6] is Gal(b1-4)GlcNAc(b1-2)Man(a1-3)[Gal(b1-4)GlcNAc(b1-2)Man(a1-6)][GlcNAc(b1-4)]Man(b1-4)GlcNAc(b1-4)[Fuc(a1-6)]GlcNAc. In short, it runs like this:
as §1

Test [7] has as its target Gal(b1-4)GlcNAc(b1-2)Man(a1-3)[GlcNAc(b1-2)Man(a1-6)]Man(b1-4)GlcNAc(b1-4)GlcNAc. In short, it runs like this:
as §1

The target of test [8] is Gal(b1-4)GlcNAc(b1-2)Man(a1-3)[GlcNAc(b1-4)][Gal(b1-4)GlcNAc(b1-2)Man(a1-6)]Man(b1-4)GlcNAc(b1-4)GlcNAc. Put shortly:
as §1

The target of test [9] is Gal(b1-4)GlcNAc(b1-2)Man(a1-3)[Man(a1-6)]Man(b1-4)GlcNAc(b1-4)GlcNAc. Put shortly:
as §1

Test [10] deals with Gal(b1-4)GlcNAc(b1-2)Man(a1-6)Man(b1-4)GlcNAc(b1-4)GlcNAc. Put shortly:
as §1

The target in test [11] is Gal(b1-4)GlcNAc(b1-2)Man(a1-6)[GlcNAc(b1-2)Man(a1-3)]Man(b1-4)GlcNAc(b1-4)GlcNAc. In short, it runs like this: as §1
For test [12], the target named is Gal(b1-4)GlcNAc(b1-2)Man(a1-6)[Man(a1-3)]Man(b1-4)GlcNAc(b1-4)GlcNAc. In short, it runs like this: as §1
The target in test [13] is Gal(b1-4)GlcNAc(b1-2)[Gal(b1-4)GlcNAc(b1-4)]Man(a1-3)[Gal(b1-4)GlcNAc(b1-2)Man(a1-6)]Man(b1-4)GlcNAc(b1-4)GlcNAc. Put shortly: as §1
Test [14] concerns the target Gal(b1-4)GlcNAc(b1-2)[Gal(b1-4)GlcNAc(b1-4)]Man(a1-3)[Gal(b1-4)GlcNAc(b1-2)[Gal(b1-4)GlcNAc(b1-6)]Man(a1-6)]Man(b1-4)GlcNAc(b1-4)GlcNAc. In short, it runs like this:
as §1

The target in test [15] is Gal(b1-4)GlcNAc(b1-2)[Gal(b1-4)GlcNAc(b1-4)]Man(a1-3)[GlcNAc(b1-4)][Gal(b1-4)GlcNAc(b1-2)Man(a1-6)]Man(b1-4)GlcNAc(b1-4)GlcNAc. Put shortly: as §1
Test [16] has as its target Gal(b1-4)GlcNAc(b1-2)[Gal(b1-4)GlcNAc(b1-4)]Man(a1-3)[GlcNAc(b1-4)][Gal(b1-4)GlcNAc(b1-2)[Gal(b1-4)GlcNAc(b1-6)]Man(a1-6)]Man(b1-4)GlcNAc(b1-4)GlcNAc. In short, it runs like this:
as §1

Test [17] deals with Gal(b1-4)GlcNAc(b1-2)[Gal(b1-4)GlcNAc(b1-6)]Man(a1-6)[Gal(b1-4)GlcNAc(b1-2)Man(a1-3)]Man(b1-4)GlcNAc(b1-4)GlcNAc. Put shortly: as §1
Test [18] concerns the target Gal(b1-4)GlcNAc(b1-2)[Gal(b1-4)GlcNAc(b1-6)]Man(a1-6)[Gal(b1-4)GlcNAc(b1-2)Man(a1-3)]Man(b1-4)GlcNAc(b1-4)[Fuc(a1-6)]GlcNAc. In short, it runs like this:
as §1

B1: Mincle (Bos taurus) (protein)
chain: MNSSTSPASQTERRCFSFQLFSWAIAGTSILLLSACFITRCVVTYSIFQLCDEKKFQPPGDSMELSCYNDGSGSVKNCCPLKWFHFQSSCYLFSPDTMSWRASLKNCSSMGAHLVVINTQEEQEFLYYTKPRKKEFYIGLTDQVTEGQWQWVDGTPFTKSLSFWDAGEPNNLVIVEDCATIRDSSNPRQNWNDVPCFFNMFRVCEMPERKI
On to B1, for which the “glycan array binding signal (z-score)” value was -0.282 in the test with Gal(b1-4)Glc; 0.6 in the test with Gal(b1-4)Glc6S; -0.249 with Gal(b1-4)GlcNAc; -0.729 in test [1]; -0.228 with Gal(b1-4)GlcNAc(b1-2)Man; -0.512 in test [2]. The “glycan array binding signal (z-score)” value in test [3] is -0.633; in test [4], 0.943; in [5], -0.91; in [6], -0.101; in test [7] it was -0.617; in test [8], -0.334. Moreover, the “glycan array binding signal (z-score)” value is -0.043 in test [9]; -0.442 in test [10]; -0.48 in test [11]; 0.848 in test [12]; 0.607 in test [13]; -0.127 in test [14]. Moreover, the “glycan array binding signal (z-score)” value in [15] is -0.73; in test [16], -0.256; in test [17] it was -0.55; in test [18] it was 0.126.
